A weaker result is weaker than the reference pair of the same experiment. Construct, isoform or probe ends are uncertain for at least one entry. At least one verdict rests on a figure or table, not on a statement of the authors.
Legend:
SP1 [1] = biological target: SP1 (UniProt P08047); experiment: EMSA; settings: EMSA: 10 mM HEPES-NaOH pH 7.3, 50 mM KCl, 5 mM MgCl2, 0.5 mM DTT, 5% glycerol, 0.5 mg/mL BSA, 1 h, gel at 4 C, commercial protein, residues 1-785
SP1 [2] = biological target: SP1 (UniProt P08047); experiment: BLI; settings: BLI: PBS, room temperature, oligos annealed in 10 mM Tris-HCl pH 7.5 +/- 100 mM KCl, commercial protein, residues 1-785, label: 5' biotin (BLI), single-stranded DNA, letters put together from the description

Protein sequences, listed by entry. Tags and fused reporters are not part of them.
UniProt P08047, whole entry: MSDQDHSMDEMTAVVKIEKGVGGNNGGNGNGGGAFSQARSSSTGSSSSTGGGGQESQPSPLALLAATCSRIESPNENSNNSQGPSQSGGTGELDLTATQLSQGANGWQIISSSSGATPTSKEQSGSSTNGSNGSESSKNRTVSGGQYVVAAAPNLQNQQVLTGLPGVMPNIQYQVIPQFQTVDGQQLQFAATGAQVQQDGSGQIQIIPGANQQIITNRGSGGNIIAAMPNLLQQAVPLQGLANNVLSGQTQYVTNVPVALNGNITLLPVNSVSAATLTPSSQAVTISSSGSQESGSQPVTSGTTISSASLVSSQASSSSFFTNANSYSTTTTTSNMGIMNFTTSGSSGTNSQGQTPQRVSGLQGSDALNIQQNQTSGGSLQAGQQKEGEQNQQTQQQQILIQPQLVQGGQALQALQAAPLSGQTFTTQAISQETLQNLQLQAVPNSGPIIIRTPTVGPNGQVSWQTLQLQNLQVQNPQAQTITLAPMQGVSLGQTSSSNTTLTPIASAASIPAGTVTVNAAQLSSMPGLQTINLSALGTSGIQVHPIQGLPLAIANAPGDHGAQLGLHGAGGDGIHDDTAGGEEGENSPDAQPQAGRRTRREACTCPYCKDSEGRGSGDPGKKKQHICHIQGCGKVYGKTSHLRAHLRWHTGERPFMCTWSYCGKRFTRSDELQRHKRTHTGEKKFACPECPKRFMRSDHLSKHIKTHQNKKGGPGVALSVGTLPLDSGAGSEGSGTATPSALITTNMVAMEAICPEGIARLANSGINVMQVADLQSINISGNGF

## AGAGACCGAGAGCAGAGAGACGAG [Negative control (NC) 24-nt]
SP1 [1]; substantially reduced, some non-specific binding, single-stranded DNA, letters put together from the description
  binding result: binds more weakly

## CAGGAAACCCCTGGGGCGTACGGGTGGCCCCGGGGGGGCCGGGGGCGGGGAGGCGGGCGGCCGGCACCGCCCCGGCCGACAAAAGTCCCT (double strand) [dsBcl3 WT 90 bp]
SP1 [1]; SP1:G4 complexes and condensates, well signal reduced by 1,6-hexanediol
  binding result: binds

## AGAGACCGGGGGCGGGGAGACGAG [PCNG4, annealed without KCl]
SP1 [1]; annealed without KCl, bound poorly, single-stranded DNA, letters put together from the description
  binding result: binds more weakly

## GGGGGCCGGGGGCGGGGAGGCGGG [Bcl3 WT 24-nt, annealed without KCl]
SP1 [2]; annealed without KCl, local 1:1 fit at 457 nM SP1, range given for all no-KCl oligos
  binding result: binds more weakly
SP1 [1]; annealed without KCl, label: 5' biotin (BLI), single-stranded DNA, letters put together from the description
  Kd: 148 nM

## AAAGGCCGGGGGCGGGGAGGCAAA [GI/IVA 24-nt, annealed with KCl]
SP1 [2]; annealed in KCl, response slope 0.12 vs 0.22 for WT (KCl)
  binding result: binds more weakly
SP1 [1]; substantially reduced, Kd only in Fig 2C, label: 5' biotin (BLI), single-stranded DNA, letters put together from the description
  binding result: binds more weakly

Reference: PMC12397910
